# Record: PubChem BioAssay AID1508588 (Peter MacCallum Cancer Centre, 2020)
# Assay: 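Genome-wide search for knock-downs that heighten vemurafenib action in melanoma cells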 (primary screen)
# System: human WM266.4 melanoma cells (BRAF V600 mutant)
# Knock-down reagent: siRNA pool against human genes, 40 nM
# Timing: 96 h from transfection to read-out
# Treatment: vemurafenib 300 nM (about IC25), added 48 h after transfection, for 48 h; comparison arm got DMSO vehicle only
# Measured: 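Cell gain (DAPI nuclei at end minus before drug, mean of two replicates) and medium lactate by absorbance per cell, both as ratio to non-targeting siRNA, also grouped into fold-change classes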
# Reading the numbers: cell gain with vemurafenib: higher = more cell gain than with non-targeting siRNA; lactate per cell with vemurafenib: higher = more lactate made per cell
# Active means: 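a knock-down counts as enhancing when its fold-change classes with vehicle and with vemurafenib, taken together, show a stronger drug effect on cell gain or lactate per cell; exact class pairs not stated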
# Calls: active = enhances vemurafenib effect; inactive = no enhancement seen
# In all, the deposit lists about 18,000 reagents; below is a random part of them. 790 of them (4.4%) count as active. 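Calls rest on a combination of fold-change classes in drug and vehicle arms, not all shown here.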 Entries without a mark were called inactive. Some reagents were tested in more than one well and are listed for each. No sequences are given here.
gene,cell gain with vemurafenib,lactate per cell with vemurafenib
WDR45B,1.04,0.72
GREM2,0.82,0.4
TFAM,0.98,0.55
HPGD,0.56,1.23
IRF3,0.48,1.94
FHL2,0.63,0.7
AS3MT,0.1 (active),0.55
NHS,0.54,0.76
DAXX,1.07,0.72
STIL,0.6,2
U2AF2,0.22,2.28
KLHL28,0.5,1.29
RANBP6,0.55,0.6
MPP7,0.56,1.79
CFHR5,-0.04,1.31
ONECUT2,0.3,1.95
FCN3,0.92,0.41
OR9I1,0.13 (active),0.4
UNC45B,0.19 (active),0.88
MIGA1,-0.06,-0.12
GTF3A,0.47,0.99
FCER1G,1.02,0.82
OR7A10,0.95,0.26
CLCA4,0.41,1.88
NBPF8,0.46,1.02
YIF1A,0.47,0.65
NUSAP1,0.69,1.1
TRPM7,0.63,0.54
TRPM7,0.49,0.96
IFT70A,0.3,0.59
MUC16,0.16,1.45
ABCA8,0.9,0.8
PDZD7,0.19,0.74
DDI1,0.35,0.88
IFNA6,-0.04,0.52
NAB1,0.5,1.05
ARSJ,0.46,1.15
UBE2A,0.73,0.53
SLC39A4,0.41,0.88
NPTX2,0.79,0.42
TTC39B,0.52,0.68
STX8,-0.01,2.94
FAM43A,0.86,1.17
SPART,0.84,0.59
FARP1,0.28,0.99
CLVS2,0.61,0.34
KIF7,0.52,1.16
GDF3,0.36,1.36
CBX6,1.01,0.8
NUDT10,0.23,0.7
REPS1,0.92,0.9
RPS7,-0.04,1.11
MRPS18A,0.72,0.86
DEFA3,1,0.45
ITGB3BP,0.74,0.64
AKAP11,0.22,0.03
SLIRP,0.5,1.77
PPP1CB,0.85,0.41
SIRT4,1.01,1.45
TMEM98,0.95,1.17
WIPI2,0.38,1.58
B4GALNT2,0.33,1.62
NKX6-1,0.73,1.29
ST8SIA2,0.63,1.14
PTPN14,0.76,0.82
TMEM176A,0.75,0.85
VIL1,0.48,0.34
RECQL5,0.46,1.25
IL12RB1,0.67,1.34
NUDT16,0.62,0.9
DACT1,0.69,1.24
LRRC59,0.43,1.44
TUBAL3,1.04,0.77
IGSF1,0.98,0.55
RXFP3,0.83,0.86
NHLRC4,0.13,0.72
ARHGEF3,0.94,0.42
CPSF3,0.96,0.68
GTF2IRD1,1.01,0.8
FAM111A,0.23,1.65
PCDHB5,0.87,0.32
NME1-NME2,0.14,1.73
TMPRSS2,0.39,1.19
COMMD3,0.6,1.06
ZNF648,0.84,0.79
KLK14,0.83 (active),0.45
F5,0.65,1.12
TSEN54,0.47,1.17
SUV39H2,0.11,1.61
WDR33,1,0.67
AGXT2,0.35,0.26
FTCD,0.55,0.81
ADCY2,0.8,0.6
KMT2B,0.55,0.92
LORICRIN,0.78,2.13
CCDC15,0.24,2.02
NCF1,0.52,1.29
LNPEP,0.71,0.82
NREP,0.05,2.16
SRSF1,-0.05,3.43
FBXW10B,0.38,1.31
MED6,0.18,0.76
USP9X,0.95,0.77
TAF1,0.39,0.37
MND1,0.11,1.38
ALDH1A1,0.91,0.48
SF3B4,0.05,1.23
